Patent US6469013B2, “Therapeutic compounds” (Parker Hughes Institute, priority 1998, dated 2002)
“Also recorded” adds a separate entry of the source. At least one compound was matched to its structure with a doubt left.

How the values were obtained:
[1] = system: JAK3-dependent STAT activation; experiment: EMSA, IL-2 stimulated 32Dc11/IL2Rβ cells; format: cell-based; details: 10 μg/ml
[2] = system: JAK1/JAK2-dependent STAT activation; experiment: EMSA, IL-3 stimulated 32Dc11/IL2Rβ cells; format: cell-based; details: 10 μg/ml
[3] = system: recombinant JAK1; experiment: Recombinant JAK1 immune complex kinase assay; format: biochemical
[4] = system: skh-1 mice; experiment: Acute UVB skin inflammation: skinfold thickness, morphology, histology; format: in vivo, mouse
Excerpt: A bank of 8-FSX24T12/HO/UVB lamps (National Biological Corporation, Twinsburg, Ohio) that emits light predominantly in the UVB range, 280-320 nm was used to irradiate mice and cell cultures. The irradiance of UVB lamps was always measured before irradiation using a UVB meter (model—500C obtained from National Biological Corporation, Twinsburg, Ohio). The dose of UVB light used to irradiate cultures was 25 mj/cm^2. Anesthetized mice received UVB radiations to a 2.0 cm^2 area on their dorsal surface. This area was painted either with the test compound (1.5 mg/cm^2) in drug receiving mice, or with vehicle in control mice fifteen minutes before irradiation. The distance between UVB lamps and surface receiving irradiation was 20 cm. The final radiation dose received by skh-1 hairless mice was 250 mj/cm^2 which is approximately seven times higher than the minimal erythema dose (MED) (17) in these mice. BigBlue mice were shaved on their back before irradiation and then exposed to 400 mj/cm^2 UVB light either in the presence or absence of compound 6.
Compound 6 was initially dissolved in dimethyl sulfoxide (DMSO) (Sigma, St. Louis, Mo.) at a concentration of 10 mg/ml and diluted to 1 mg/ml concentration with Phosphate buffer saline (PBS) before injection. The mice were treated daily with 16 mg/kg i.p. bolus injection of compound 6 from day -2 (i.e. 2 days prior to UVB exposure) until the termination of the experiment. Drug receiving mice were also painted with 1.5 mg/cm^2 of Compound 6, 15 min before irradiation. The control mice received vehicle alone.
Morphological appearance of the UVB irradiated skin was monitored visually and compared with the control mice skin. Skinfold thickness of the dorsal surface of the mice was recorded before, and everyday after UVB exposure for five days with a digital thickness gauge (Mitutoyo, So. Plainfield, N.J.) which measures thickness in 0-10 mm range with an accuracy of 0.015 mm.
To study the histological changes following irradiation the tissue sections were stained with hematoxylin and eosin and the stained slides were examined microscopically.

[5] = system: HaCaT human epidermal cells; experiment: EGF-stimulated PGE2 release (EIA); format: cell-based; details: 30 μM, 50 ng/ml rhEGF, 6 h
[6] = system: NOD females; experiment: Spontaneous diabetes in NOD females (incidence, IPGTT, insulitis); format: in vivo, mouse; details: 100 mg/kg for 20 or 15 weeks, 120 min post glucose challenge
Protocol: Mice were monitored for diabetes development by testing blood glucose from 10 wk of age by One Touch Profile diabetes tracking system, as described above.
Intraperitoneal glucose tolerance test (IPGTI) was performed in the group of non-diabetic WHI-P131-treated and vehicle-treated control NOD females on the end of experimental period (25 wk of age of NOD mice). Mice were fasted for 10 hours, and the glucose solution (1.5 g/kg body weight) was injected i.p. Before and after injection of glucose, blood samples were taken and blood glucose levels were measured (as described above) at 0, 30, 60 and 120 min time points.
The group of control and WHI-P131-treated non-diabetic NOD females was sacrificed at the end of experimental period, at 25 wksof age, and characteristic histopathologic lesion of islets (insulitis) was evaluated in each mouse scoring at least 25 islets per mouse. Briefly, pancreas was removed, fixed in 10% formalin, parafin embedded, cut and stained with hematoxylin and eosin for light microscopic examinations.

| Compound | inhibition of IL-2 triggered JAK3-dependent STAT activation [1] | effect on IL-3 triggered JAK1/JAK2-dependent STAT activation [2] | inhibitory activity against recombinant JAK1 [3] | skin edema (skinfold thickness) ([4]; 24 h post UVB 250 mj/cm^2, 16 mg/kg i.p. daily plus 1.5 mg/cm^2 topical) | skin edema (skinfold thickness) ([4]; 48 h post-UVB) | skin edema (skinfold thickness) ([4]; 72 h post irradiation) | skinfold thickness ([4]; day five post irradiation) | EGF-stimulated prostaglandin release (in words) [5] | IPGTT blood glucose levels vs C57BL/6 mice [6] |
| --- | --- | --- | --- | --- | --- | --- | --- | --- | --- |
| COc1cc2ncnc(Nc3ccc(O)c(Br)c3)c2cc1OC [WHI-P154, 4-(3′bromo4′-hydroxyl-phenyl)-amino-6,7-dimethoxyquinazoline] | inhibited | did not affect; also recorded: but not | did not exhibit any detectable inhibitory activity |  |  |  |  |  |  |
| COc1cc2ncnc(Nc3ccc(O)cc3)c2cc1OC [WHI-P131, 4-(4′-hydroxyl-phenyl)-amino-6,7-dimethoxyquinazoline] |  | did not affect; also recorded: but not | did not exhibit any detectable inhibitory activity | not able to effectively inhibit the skin edema | blocked further increase in skin thickness | significant decrease in skin edema | almost back to control level | inhibited | similar |
